These are yes or no findings as the source states them, for the method shown. Binding seen in cells or lysates may run through a third protein. Some entries that bind do so weakly or less than the wild type.
Target: protein kinase R (PKR), endogenous (human (endogenous in HEK293T and A549)) (UniProt P19525)

By UniProt entry, the sequences of proteins in these tests, tags left out.
UniProt P19525: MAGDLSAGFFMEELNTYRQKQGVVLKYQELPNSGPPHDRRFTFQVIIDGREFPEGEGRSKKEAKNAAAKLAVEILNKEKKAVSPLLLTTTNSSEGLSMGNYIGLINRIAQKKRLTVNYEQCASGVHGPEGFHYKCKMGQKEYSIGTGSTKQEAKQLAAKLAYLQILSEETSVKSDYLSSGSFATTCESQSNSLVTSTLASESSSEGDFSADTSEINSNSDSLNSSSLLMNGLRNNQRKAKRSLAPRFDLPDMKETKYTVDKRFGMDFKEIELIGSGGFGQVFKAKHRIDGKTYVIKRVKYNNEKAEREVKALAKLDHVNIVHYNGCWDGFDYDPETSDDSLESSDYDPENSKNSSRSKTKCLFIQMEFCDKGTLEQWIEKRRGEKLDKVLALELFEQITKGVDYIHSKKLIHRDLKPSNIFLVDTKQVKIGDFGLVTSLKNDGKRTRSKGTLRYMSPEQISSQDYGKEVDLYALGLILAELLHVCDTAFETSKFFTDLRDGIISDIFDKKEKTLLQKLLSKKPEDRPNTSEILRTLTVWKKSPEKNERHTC

binding: binds
B1: MDA5, endogenous (protein, UniProt Q9BYX4 1-1025)
chain: MSNGYSTDENFRYLISCFRARVKMYIQVEPVLDYLTFLPAEVKEQIQRTVATSGNMQAVELLLSTLEKGVWHLGWTREFVEALRRTGSPLAARYMNPELTDLPSPSFENAHDEYLQLLNLLQPTLVDKLLVRDVLDKCMEEELLTIEDRNRIAAAENNGNESGVRELLKRIVQKENWFSAFLNVLRQTGNNELVQELTGSDCSESNAEIENLSQVDGPQVEEQLLSTTVQPNLEKEVWGMENNSSESSFADSSVVSESDTSLAEGSVSCLDESLGHNSNMGSDSGTMGSDSDEENVAARASPEPELQLRPYQMEVAQPALEGKNIIICLPTGSGKTRVAVYIAKDHLDKKKKASEPGKVIVLVNKVLLVEQLFRKEFQPFLKKWYRVIGLSGDTQLKISFPEVVKSCDIIISTAQILENSLLNLENGEDAGVQLSDFSLIIIDECHHTNKEAVYNNIMRHYLMQKLKNNRLKKENKPVIPLPQILGLTASPGVGGATKQAKAEEHILKLCANLDAFTIKTVKENLDQLKNQIQEPCKKFAIADATREDPFKEKLLEIMTRIQTYCQMSPMSDFGTQPYEQWAIQMEKKAAKEGNRKERVCAEHLRKYNEALQINDTIRMIDAYTHLETFYNEEKDKKFAVIEDDSDEGGDDEYCDGDEDEDDLKKPLKLDETDRFLMTLFFENNKMLKRLAENPEYENEKLTKLRNTIMEQYTRTEESARGIIFTKTRQSAYALSQWITENEKFAEVGVKAHHLIGAGHSSEFKPMTQNEQKEVISKFRTGKINLLIATTVAEEGLDIKECNIVIRYGLVTNEIAMVQARGRARADESTYVLVAHSGSGVIEHETVNDFREKMMYKAIHCVQNMKPEEYAHKILELQMQSIMEKKMKTKRNIAKHYKNNPSLITFLCKNCSVLACSGEDIHVIEKMHHVNMTPEFKELYIVRENKALQKKCADYQINGEIICKCGQAWGTMMVHKGLDLPCLKIRNFVVVFKNNSTKKQYKKWVELPITFPNLDYSECCLFSDED
